Test results reported in US20150297593A1 (priority 2012, published 2015).
Entries after “also recorded” stand apart in the source; their conditions may differ. For at least one compound, name, drawing or mass did not settle the structure.

What was measured:
[1] = test system: influenza A virus (Mem71, H3N1); assay type: in vivo, BALB/c mice
OVA-induced AHR = test system: OVA-induced AHR; parameters: species or system BALB/c mice; conditions: mouse, in vivo

## C[C@@H]1C[C@H]2[C@@H]3CCC4=CC(=O)C=C[C@]4(C)[C@@]3(F)[C@@H](O)C[C@]2(C)[C@@]1(O)C(=O)CO [dexamethasone]
[1]; dexamethasone 100 ug/mouse i.p. on day -1, day 1 and day 4, […]
  H3N1 infection-caused inflammation (BAL fluid cells): but not H3N1 infection-caused
[1]; mouse, in vivo, ip
  influenza (H3N1)-induced AHR: but not H3N1 infection-caused; also recorded: failed to prevent
OVA-induced AHR
  OVA-induced AHR: abolishes
  OVA-induced inflammation (BAL fluid cells): abolishes
